≈ marks a conversion by molar mass, not a printed value.
System: Candida albicans ATCC 64548
Experiment: In vitro antifungal assay, broth microdilution (MIC/MFC), C. albicans
Type: cell-based
Settings: ATCC64548, RPMI 1640, 37 °C, 24 h
Protocol: The broth microdilution method was used to assess the antifungal susceptibility of free AMB, and ZnO, ZnO-AMB, and ZnO-AMB-PEG nanoparticles against Candida albicans ATCC 64548 and Cryptococcus neoformans ATCC 90112 according to the Clinical Laboratory and Standards Institute Guidelines (CLSI, 2015). The nanoparticle solutions were serially diluted in sterile saline to obtain dilutions ranging from 5.0 to 0.00625 µg/mL. Aliquots (100 µL) from different dilutions of different preparations were transferred to the wells of 96-well microtiter plate. Fresh cultures of the tested strains were suspended in RPMI 1640 provided with L-glutamine and MOPS at pH 7.0 to prepare suspensions with a turbidity approximating that of 0.5 McFarland Standard. The fungal suspensions were diluted 1:100 with RPMI 1640 to obtain cell density of 1 × 10^5 CFU/mL. Of the prepared fungal suspensions, 100 µL was added to all dilutions of nanoparticle preparations. […] The minimum inhibitory concentration (MIC) was considered as the lowest concentration that inhibited the visible turbidity. The experiment was repeated six times and both positive control (inoculated fungi in broth without any addition) and negative control (sterile broth without fungi) were included in the experiment. The minimum fungicidal concentration (MFC) was determined according to [23].

## C[C@@H]1[C@H](O)[C@@H](C)/C=C/C=C/C=C/C=C/C=C/C=C/C=C/[C@H](O[C@@H]2O[C@H](C)[C@@H](O)[C@H](N)[C@@H]2O)C[C@@H]2O[C@](O)(C[C@@H](O)C[C@@H](O)[C@H](O)CC[C@@H](O)C[C@@H](O)CC(=O)O[C@H]1C)C[C@H](O)[C@H]2C(=O)O [AMB, Amphotericin B]
  MIC: 0.1 µg/mL (≈ 0.108 µM)
